Values from PubChem BioAssay AID652243 (Drosophila RNAi Screening Center, 2013)
Aim: 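Fly regulators of androgen-dependent reporter output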 (primary screen). System: Drosophila S2R+ cells. Reagents: long dsRNA against Drosophila genes. Duration: 72 h (48 h, then 24 h hormone). Challenge: synthetic androgen R1881 at 10 nM for 24 h. Detection: 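Per-well raw luminescence of the androgen-driven firefly reporter and of the Renilla control, two replicates each, without normalisation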. Scale: firefly reporter light: higher = more light from androgen-responsive reporter; Renilla control light: higher = more constitutive control signal (cell number, transfection). Call rule: 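Across duplicate plates, a knock-down whose log firefly/Renilla ratio shifted a set fold down or up from the GFP/LacZ control mean was a hit; the downward cut appears as both 1.5 and 3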. Calls: active = hit: reporter lowered or raised; inactive = no hit.
The deposit covers about 24,000 reagents; shown is an unselected part of those with a known target gene and a result. In the full data, 246 (1%) were called active. 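Plates not normalised; calls are printed but the firefly/Renilla ratio behind them is not deposited; fold cut for lowering reported inconsistently.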 Raw values vary from plate to plate and are shown uncorrected. A plus sign joins genes that one reagent is predicted to hit. Reagent sequences are not shown. Not given: the amount of reagent.

target,DRSC id,"firefly reporter light, replicate 1","firefly reporter light, replicate 2","Renilla control light, replicate 1","Renilla control light, replicate 2",outcome
CG3407,DRSC00603,6.04e5,6.08e5,9.69e5,9.41e5,inactive
clos (closca),DRSC06240,2.58e5,2.96e5,1.49e6,2.06e6,inactive
clos (closca),DRSC06241,2.96e5,1.93e5,2.09e6,1.45e6,inactive
clos (closca),DRSC06778,3.37e5,2.64e5,1.93e6,1.62e6,inactive
clos (closca),DRSC21857,6.54e5,6.31e5,1.20e6,1.29e6,inactive
clos (closca),DRSC22942,3.99e5,7.53e5,9.85e5,1.81e6,inactive
CG17855,DRSC02638,1.39e5,1.49e5,1.72e6,1.72e6,inactive
CG30423,DRSC04013,1.21e5,93647,2.08e5,1.96e5,inactive
Fibp,DRSC11031,26483,36047,3.58e5,2.93e5,inactive
Fibp,DRSC26529,3.41e5,3.46e5,5.47e5,7.94e5,inactive
CG15253,DRSC01871,1.36e5,1.20e5,1.65e6,1.57e6,inactive
CG15253,DRSC26826,3.91e5,4.08e5,8.96e5,4.62e5,inactive
Pect (Phosphoethanolamine cytidylyltransferase),DRSC02867,5.84e5,5.96e5,1.15e6,1.69e6,inactive
Pect (Phosphoethanolamine cytidylyltransferase),DRSC02868,2.47e5,2.18e5,1.19e6,1.67e6,inactive
CG4074,DRSC11752,1.58e5,1.61e5,1.51e6,1.56e6,inactive
CG4074,DRSC29915,6.23e5,4.17e5,1.34e6,1.51e6,inactive
CG15429,DRSC00444,1.23e5,1.72e5,6.63e5,1.06e6,inactive
CG15429,DRSC26501,2.69e5,2.41e5,2.57e5,3.40e5,inactive
CG8586,DRSC07218,7.91e5,7.75e5,1.13e6,1.46e6,inactive
CG1441,DRSC06448,6.93e5,5.16e5,2.43e6,1.89e6,inactive
CG1441,DRSC27028,3.16e5,3.95e5,6.72e5,5.75e5,inactive
CG8673,DRSC03105,1.61e5,2.28e5,1.47e6,1.31e6,inactive
CG9396,DRSC16487,1.76e5,1.84e5,2.64e6,1.90e6,inactive
CG9396,DRSC24611,8.67e5,1.02e6,9.50e5,1.14e6,inactive
CG14207,DRSC19562,75862,1.03e5,6.68e5,7.67e5,inactive
CG14207,DRSC19563,1.45e5,1.50e5,4.32e5,2.30e5,inactive
Ilk (Integrin linked kinase),DRSC11868,4.91e5,6.08e5,2.89e6,3.76e6,inactive
Ilk (Integrin linked kinase),DRSC36792,,,,,inactive
RpS14b (Ribosomal protein S14b),DRSC18711,88915,98228,1.19e6,1.08e6,inactive
CG7367,DRSC03049,1.31e5,1.61e5,1.43e6,1.50e6,inactive
CG7367,DRSC28024,7.47e5,1.04e6,1.43e6,2.03e6,inactive
mRpL15 (mitochondrial ribosomal protein L15),DRSC11771,88177,23519,4.15e5,2.27e5,inactive
mRpL15 (mitochondrial ribosomal protein L15),DRSC24402,3.62e5,3.38e5,5.05e5,5.39e5,inactive
CG6271,DRSC16006,1.10e5,90161,6.63e5,6.27e5,inactive
CG6271,DRSC25865,3.26e5,4.11e5,9.35e5,5.57e5,inactive
CG16903,DRSC18561,2.45e5,2.36e5,3.35e6,2.74e6,inactive
CG16903,DRSC36971,,,,,inactive
Gpxl (Glutathione peroxidase-like),DRSC06538,55883,73099,6.39e5,9.64e5,inactive
CG17724,DRSC06687,4.21e5,4.90e5,8.88e5,9.96e5,inactive
CG17724,DRSC27618,1.82e5,2.24e5,5.01e5,7.47e5,inactive
CG15561,DRSC15100,2.28e5,2.33e5,1.94e6,3.16e6,inactive
CG15561,DRSC24085,1.27e6,9.04e5,7.12e5,6.96e5,inactive
CG14627,DRSC18630,59716,67203,2.15e6,1.57e6,inactive
CG13502,DRSC04147,2.12e5,2.36e5,1.50e6,1.90e6,inactive
CG13502,DRSC26374,3.24e5,5.04e5,7.13e5,7.44e5,inactive
nmo (nemo),DRSC08902,1.54e5,1.41e5,3.51e5,3.40e5,inactive
nmo (nemo),DRSC11377,6.58e5,8.04e5,1.16e6,1.38e6,inactive
nmo (nemo),DRSC27949,9.42e5,4.95e5,3.02e6,1.79e6,inactive
rb (ruby),DRSC18826,1.27e5,1.40e5,1.82e6,2.45e6,inactive
rb (ruby),DRSC27940,1.10e6,5.24e5,3.49e6,1.65e6,inactive
TwdlE (TweedleE),DRSC02392,2.06e5,2.53e5,1.92e6,1.92e6,inactive
TwdlE (TweedleE),DRSC24943,5.79e5,8.08e5,1.30e6,1.43e6,inactive
Ufm1 (Ubiquitin-fold modifier 1),DRSC38750,7.70e5,7.35e5,1.93e6,2.38e6,inactive
CG32248,DRSC08102,3.12e5,3.32e5,3.18e5,3.30e5,inactive
CG32248,DRSC25738,7.15e5,7.73e5,6.23e5,6.49e5,inactive
CG31729,DRSC02524,8.08e5,1.32e6,1.46e6,1.99e6,inactive
CG31729,DRSC02946,2.09e5,1.88e5,2.06e6,2.59e6,inactive
CG31729,DRSC25841,3.26e5,2.60e5,8.34e5,8.19e5,inactive
CG13857,DRSC14707,2.68e5,3.04e5,2.95e6,3.00e6,inactive
gkt + CR31953,DRSC00709,5.45e5,7.17e5,2.04e6,1.65e6,inactive
CG32249,DRSC08101,3.98e5,4.46e5,8.62e5,7.10e5,inactive
CG32249,DRSC08177,2.71e5,2.01e5,2.78e6,2.94e6,inactive
CG32249,DRSC22444,4.19e5,9.03e5,8.05e5,1.70e6,inactive
Rab9Fb (Rab at 9Fb),DRSC19854,6.82e5,4.40e5,4.53e6,4.82e6,inactive
CG15370,DRSC23277,5.88e5,6.01e5,1.34e6,1.59e6,inactive
CG15370,DRSC29703,4.20e5,3.83e5,1.81e6,1.58e6,inactive
daed (daedalus),DRSC00299,9.70e5,1.24e6,2.55e6,1.72e6,inactive
CG7381,DRSC16238,39286,37112,4.12e5,4.97e5,inactive
CG7381,DRSC29012,4.73e5,3.88e5,1.14e6,1.25e6,inactive
CG13005,DRSC19524,3.87e5,4.27e5,3.50e6,3.08e6,inactive
EbpII (Ejaculatory bulb protein II),DRSC04637,1.03e6,5.51e5,2.15e6,1.55e6,inactive
EbpII (Ejaculatory bulb protein II),DRSC22484,4.90e5,6.64e5,1.51e6,2.24e6,inactive
EbpII (Ejaculatory bulb protein II),DRSC29557,3.39e5,5.88e5,1.17e6,1.17e6,inactive
Tbca (Tubulin binding cofactor A),DRSC15395,51130,66758,4.93e5,3.64e5,inactive
Tbca (Tubulin binding cofactor A),DRSC29064,6.07e5,4.63e5,1.33e6,1.30e6,inactive

Only “firefly reporter light, replicate 2”, for 6 of the entries above:
Ufm1 (Ubiquitin-fold modifier 1) [DRSC38750]: 7.35e5
CG32248 [DRSC08102]: 3.32e5
CG32248 [DRSC25738]: 7.73e5
CG31729 [DRSC02524]: 1.32e6
CG31729 [DRSC02946]: 1.88e5
CG31729 [DRSC25841]: 2.60e5
